# Source: patent US8987242B2, “Morpholinone compounds as factor IXA inhibitors” (Merck Sharp & Dohme Corp., priority 2008, dated 2015)
# Chains of the proteins cited; added tags and fusions are not shown. Residues count along the entry.
# UniProt P00740, 227-461 limits assumed: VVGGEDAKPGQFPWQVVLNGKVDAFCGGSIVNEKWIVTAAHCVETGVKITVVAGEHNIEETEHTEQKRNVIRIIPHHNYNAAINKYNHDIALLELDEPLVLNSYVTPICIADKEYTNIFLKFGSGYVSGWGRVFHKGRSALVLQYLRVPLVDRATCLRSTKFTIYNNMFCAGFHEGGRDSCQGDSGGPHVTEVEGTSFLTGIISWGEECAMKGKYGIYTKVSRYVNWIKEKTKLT
# UniProt P00740, 47-191 partner limits assumed: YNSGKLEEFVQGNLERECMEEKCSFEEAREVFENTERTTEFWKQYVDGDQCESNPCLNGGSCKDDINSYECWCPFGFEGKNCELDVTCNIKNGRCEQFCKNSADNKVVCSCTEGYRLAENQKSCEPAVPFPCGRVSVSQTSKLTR
# Target: human factor IXa (Homo sapiens (Human), UniProt P00740)
# Assay: Determination of inhibitory activity against factor IXa (SPECTROFLUOR FIXa fluorogenic substrate enzyme assay)
# Settings: read-out: Factor IXa enzyme assay IC50; human factor IXa 2.0 μg/ml, SPECTROFLUOR FIXa 100 μM, 60 minutes at room temperature, pH 8.0; tested form: HCl
row,IC50 [nM],Structure (SMILES)
1,9.3,N=C(N)c1ccc(NC(=O)[C@H](O)[C@H]2OCCN(c3ccc4[nH]c(=O)ccc4c3)C2=O)cc1F
2,12,N=C1NCc2cc(NC(=O)[C@H](O)[C@H]3OCCN(c4ccc5[nH]c(=O)ccc5c4)C3=O)ccc21
3,9.6,N=C1NCc2cc(NC(=O)[C@H](O)[C@H]3OCCN(c4ccc5ccc(=O)n(CC(=O)O)c5c4)C3=O)ccc21

row,Structure (SMILES),IC50 [nM]
1,COC(=O)CN1C(=O)CCc2ccc(N3CCO[C@H]([C@@H](O)C(=O)Nc4ccc5c(c4)CNC5=N)C3=O)cc21,9

# Structures were worked out from names or drawings and are uncertain.
